According to patent publication US20090054250:

Tests used:
[1] = molecular target: PDGF-BB (platelet-derived growth factor B homodimer) (UniProt P01127); assay: binding assay; details: n at position 22 is 2-aminopurine replacing C [22 (2-aminopurine replacing C)]; PAGE purified; screening buffer 20 mM Tris pH 7.1, 140 mM NaCl, 5 mM KCl, 10 mM CaCl2, 10 mM MgCl2, 23 C; label: 2-aminopurine; single-stranded DNA; letters built from the parent sequence and the stated change
[2] = system: alpha-thrombin (Homo sapiens); assay: binding assay; details: n at position 7 is 2-aminopurine replacing T [7 (2-aminopurine replacing T)]; 2AP fluorescence at saturating protein; label: 2-aminopurine; single-stranded DNA; letters built from the parent sequence and the stated change

Q: For “CACAGGCTACGGCACGTAGAGCATCACCATGATCCTGTG [PDGF-B aptamer 2AP-22]”, which binding signal (fold fluorescence increase) [1] is on record?
A: 5.8

Q: Which binding signal (fold fluorescence increase) [2] does the source give for “GGTTGGTGTGGTTGG [thrombin aptamer 2AP-7]” here?
A: 10

Construct, isoform or probe ends are uncertain for at least one entry. Whether high values mean tight binding is not given here for every scale.
